Measurements taken from the supplement of paper PMC8846439.
The other results are listed elsewhere or left out. Many values rest on one well or one pass, so single values are uncertain.

Test system: Trypanosoma brucei brucei bloodstream form L262P (kDNA-independent)
Test: viability Z-score (nuclei count per well, median-polish normalised, relative to plate distribution); higher = more viable parasites (negative = growth inhibition)
Conditions: 4 days; compound concentration: 10 µM (some Prestwick/PKE rows may be 1 µM / not distinguished)

Row | SMILES | viability Z-score
1 | CC1(C)[C@H]2CC[C@]1(C)/C(=N/N=C1NC(=O)/C(=C\c3cccc(Br)c3)S1)C2 | -5.96
2 | CN(CCN(C)C)C1=NC(=NC=2CCN(CC1=2)C/C3=C/C=CC=C3)N4CCCC4 | -3.98
3 | O=C(C/C1=C/NC=2C=CC=CC1=2)OCC(=O)C3=CC=C(C=C3)C=4C=CC=CC=4 | -2.8
4 | [F]C([F])([F])[C@](O)([H])CNC/C1=C/C=C(C=C1)C=2[S]C=CC=2 | -2.09
5 | N=1\C(c2c(N/C1/N)ncc(n2)CNc1ccc(C(N[C@H](C(=O)O)CCC(=O)O)=O)cc1)=O [Folic acid] | -2.24
6 | CN1C(=O)CC(c2ccccc2)C1=O (stereo unspecified) [Phensuximide] | -1.4
7 | CC/C2=C/C=1C(=NNC(=NC=1C=C2)C3=CC=CC=C3)C=4[S]C=CC=4 | -5.89
8 | CN1CCc2c(nnn2-c2ccccc2)C1 | -5.49
9 | C=1/2\C(=C/C(\C(=C/C1)\SC)=O)\[C@@H](NC(=O)C)CCc1c2c(c(c(O[C@H]2[C@@H]([C@H]([C@@H]([C@H](O2)CO)O)O)O)c1)OC)OC [Thiocolchicoside] | -1.78
10 | COc1cc2nc(N3CCCN(C)CC3)nc(NC3CCN(Cc4ccccc4)CC3)c2cc1OC | -4.3
11 | C=1(N=CC=CN=1)[S]CCOCCO/C2=C/C=CC=C2 | -3.16
12 | O=C(N/C1=C/C=C(C=C1)OCC)C[S]/C2=N/N=C(N2CC=C)C34CC5([H])C[C@@]([H])(C3)CC([H])(C4)C5 | -2.05
13 | [F]C([F])([F])C1=CC=C(C=C1)N2C=N/N=C2/[S]C/C3=N/C(=NO3)COC=4C([Cl])=CC=CC=4[Cl] | -3.38
14 | OC(/C2=C/C(=C1C=CC=C/C1=C2\N)C(O)(C([F])([F])[F])C([F])([F])[F])(C([F])([F])[F])C([F])([F])[F] | -1.97
15 | COc1ccc(C[C@H](C)NC[C@@H](O)c2ccc(O)c(NC=O)c2)cc1.COc1ccc(C[C@H](C)NC[C@@H](O)c2ccc(O)c(NC=O)c2)cc1 [Formoterol fumarate] | -4.6
16 | N#CC(NC(=O)OCC)=C(NC/C1=C/C=CC=C1)NC/C2=C/C=CC=C2 | -9.52
17 | O=C(c1cccs1)N1CCN(C(=O)c2cccc3ccccc23)CC1 | -1.64
18 | Nc1nc2c(c(C(F)(F)F)n1)CCc1ccccc1-2 | -3.23

Row | SMILES | viability Z-score
19 | N#C/C1=C(/[S]C(C)=C1CC)NC(=O)[C@]2([H])ON=C(C2)C=3/C=C(/[Cl])C(=CC=3OC)OC | -5.7
20 | N#C/C2=C(\N)OC=1N/N=C(/C)C=1[C@]24C(=O)N(CC/C3=C/C=CC=C3)C=5C=CC=CC4=5 | -3.45
21 | CC(C)(Sc1cc(C(C)(C)C)c(O)c(C(C)(C)C)c1)Sc1cc(C(C)(C)C)c(O)c(C(C)(C)C)c1 [Probucol] | -4.01
22 | CN(C)N1C(=O)c2ccccc2[C@]1(N)c1ccccc1 | -2.52
23 | CC12C[C@H]3C[C@@H](C1)CC(CC(=O)O)(C3)C2 | -1.48
24 | O=C1NC(=NC2=C1C4(CC=3C=CC=CC2=3)CCCC4)[S]C(=O)C/C5=C/C=C(/[Cl])C=C5 | -4.87
25 | O=C(N(CC=1C=CC=CC=1)CC)C2=CC=C(C=C2)C(=O)N(C/C3=C/C=CC=C3)CC | -5.68
26 | NC(=NCCCCCCN=C(N)N=C(N)Nc1ccc(Cl)cc1)N=C(N)Nc1ccc(Cl)cc1 [Chlorhexidine] | -3.42
27 | CCOC(=O)c1cc(CC)sc1/N=C/C1C(=O)CCCC1=O | -2.12
28 | N/C(=N\OC(=O)c1ccc([N+](=O)[O-])cc1)c1c(Cl)cccc1Cl | -3.1
29 | O=C(NC=2[S]C(C/C1=C/C(C)=CC=C1)=CN=2)C/C3=C/C=CC=C3 | -3.33
30 | CC(Cn1nc([N+](=O)[O-])cc1C)=NNC(=O)c1cc(Br)n(C)n1 | -3.69
31 | O=C(O)C1=CC(=C/C=C1/C(=O)O)C(=O)C2=CC=CC=C2 | -4.36
32 | O=c1c(-c2ccc(O)cc2)coc2cc(O)cc(O)c12 [Genistein] | -2.35
33 | Cc1ccc(NC(=O)CCC(=O)N/N=C/c2coc3ccc(Br)cc3c2=O)cc1 | -6.48
34 | O=C(C[S]/C3=N/N=C(/C1=C/NC=2C=CC=CC1=2)N3C)N4CCCC4 | -3.1
35 | O=C1C=C(C(=NN1CC(=O)NC=2/C=C(/[Cl])C(=CC=2)OC)C(C)(C)[H])C=3O/N=C(/C)C=3 | -3.54
36 | CCCCCCCCCCCCC/C=C/[C@@H](O)[C@@H](N)CO [D-erythro-Sphingosine] | -2.58

Compounds above containing a nitro group on carbon, in the order listed:
Row | SMILES | viability Z-score
28 | N/C(=N\OC(=O)c1ccc([N+](=O)[O-])cc1)c1c(Cl)cccc1Cl | -3.1
30 | CC(Cn1nc([N+](=O)[O-])cc1C)=NNC(=O)c1cc(Br)n(C)n1 | -3.69
